Assay results published in publication PMC12765262.
These are yes or no findings as the source states them, for the method shown. In cells and extracts the contact can be indirect. Some binding calls cover weakened binding; strength is not graded here. Tags and fused reporters may be left off the sequences shown.

By UniProt entry, the sequences of proteins in these tests, tags left out.
UniProt P30153: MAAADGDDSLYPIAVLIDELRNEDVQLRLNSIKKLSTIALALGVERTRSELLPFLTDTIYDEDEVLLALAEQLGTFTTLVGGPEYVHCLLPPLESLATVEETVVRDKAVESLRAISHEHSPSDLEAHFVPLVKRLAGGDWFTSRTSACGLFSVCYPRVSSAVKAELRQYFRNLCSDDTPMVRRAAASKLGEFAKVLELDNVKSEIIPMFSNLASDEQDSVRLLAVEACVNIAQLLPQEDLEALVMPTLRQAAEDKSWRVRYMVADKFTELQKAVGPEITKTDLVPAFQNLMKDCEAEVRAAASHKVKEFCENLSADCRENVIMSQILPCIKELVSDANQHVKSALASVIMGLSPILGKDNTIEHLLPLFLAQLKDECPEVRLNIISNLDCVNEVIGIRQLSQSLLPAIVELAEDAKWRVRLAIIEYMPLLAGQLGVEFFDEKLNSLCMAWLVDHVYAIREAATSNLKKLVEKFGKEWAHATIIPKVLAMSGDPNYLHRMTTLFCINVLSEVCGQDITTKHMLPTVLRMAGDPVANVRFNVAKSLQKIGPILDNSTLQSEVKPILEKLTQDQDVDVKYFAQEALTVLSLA

T1: FLAG-tagged GXYLT2 (glucoside xylosyltransferase 2) (UniProt A0PJZ3)
T1 sequence: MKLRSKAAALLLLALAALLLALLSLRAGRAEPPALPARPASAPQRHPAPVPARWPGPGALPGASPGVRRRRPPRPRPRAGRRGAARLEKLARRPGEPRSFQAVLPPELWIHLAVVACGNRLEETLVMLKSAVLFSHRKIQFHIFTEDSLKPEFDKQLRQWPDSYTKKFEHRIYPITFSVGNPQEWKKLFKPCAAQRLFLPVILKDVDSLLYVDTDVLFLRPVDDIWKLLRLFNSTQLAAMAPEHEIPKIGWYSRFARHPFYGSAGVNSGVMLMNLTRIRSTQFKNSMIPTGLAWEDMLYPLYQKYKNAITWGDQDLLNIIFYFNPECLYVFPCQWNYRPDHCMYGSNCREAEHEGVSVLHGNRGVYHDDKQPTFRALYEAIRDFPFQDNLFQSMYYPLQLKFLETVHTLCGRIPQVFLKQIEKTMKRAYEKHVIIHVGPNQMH

B1: FLAG-tagged GXYLT2 (glucoside xylosyltransferase 2) (enzyme, UniProt A0PJZ3 1-443)
chain: T1 sequence

Assays:
[1] = biological target: T1, FLAG-tagged GXYLT2 (glucoside xylosyltransferase 2); assay: co-IP; 293T cells transiently transfected with HA-tagged PP2A Aα and FLAG-tagged GXYLT2; IP with FLAG-tag antibody and blot with HA-tag antibody, and IP with HA-tag antibody and blot with FLAG-tag antibody; whole cell lysates as input
[2] = biological target: HA-tagged PP2A Aα (protein phosphatase 2A scaffold subunit, A subunit) (UniProt P30153); assay: as above

Molecule	binding [1]	binding [2]
HA-tagged PP2A Aα (protein phosphatase 2A scaffold subunit, A subunit) (from UniProt P30153 1-589)	binds	–
B1	–	binds
